In paper PMC13198017:
These are yes or no findings as the source states them, for the method shown. Binding seen in cells or lysates may run through a third protein. Binding calls can cover weak binding; strength is not graded here.

Chains of the proteins cited; added tags and fusions are not shown. Lines headed by an entry give the natural chain unless they say otherwise; changes in a name come on top.
UniProt Q92520: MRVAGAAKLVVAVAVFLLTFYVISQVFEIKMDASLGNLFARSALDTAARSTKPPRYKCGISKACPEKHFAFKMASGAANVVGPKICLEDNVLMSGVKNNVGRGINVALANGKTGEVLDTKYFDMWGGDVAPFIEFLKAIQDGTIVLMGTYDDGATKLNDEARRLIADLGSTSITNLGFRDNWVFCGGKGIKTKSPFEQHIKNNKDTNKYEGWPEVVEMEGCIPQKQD
UniProt P53621: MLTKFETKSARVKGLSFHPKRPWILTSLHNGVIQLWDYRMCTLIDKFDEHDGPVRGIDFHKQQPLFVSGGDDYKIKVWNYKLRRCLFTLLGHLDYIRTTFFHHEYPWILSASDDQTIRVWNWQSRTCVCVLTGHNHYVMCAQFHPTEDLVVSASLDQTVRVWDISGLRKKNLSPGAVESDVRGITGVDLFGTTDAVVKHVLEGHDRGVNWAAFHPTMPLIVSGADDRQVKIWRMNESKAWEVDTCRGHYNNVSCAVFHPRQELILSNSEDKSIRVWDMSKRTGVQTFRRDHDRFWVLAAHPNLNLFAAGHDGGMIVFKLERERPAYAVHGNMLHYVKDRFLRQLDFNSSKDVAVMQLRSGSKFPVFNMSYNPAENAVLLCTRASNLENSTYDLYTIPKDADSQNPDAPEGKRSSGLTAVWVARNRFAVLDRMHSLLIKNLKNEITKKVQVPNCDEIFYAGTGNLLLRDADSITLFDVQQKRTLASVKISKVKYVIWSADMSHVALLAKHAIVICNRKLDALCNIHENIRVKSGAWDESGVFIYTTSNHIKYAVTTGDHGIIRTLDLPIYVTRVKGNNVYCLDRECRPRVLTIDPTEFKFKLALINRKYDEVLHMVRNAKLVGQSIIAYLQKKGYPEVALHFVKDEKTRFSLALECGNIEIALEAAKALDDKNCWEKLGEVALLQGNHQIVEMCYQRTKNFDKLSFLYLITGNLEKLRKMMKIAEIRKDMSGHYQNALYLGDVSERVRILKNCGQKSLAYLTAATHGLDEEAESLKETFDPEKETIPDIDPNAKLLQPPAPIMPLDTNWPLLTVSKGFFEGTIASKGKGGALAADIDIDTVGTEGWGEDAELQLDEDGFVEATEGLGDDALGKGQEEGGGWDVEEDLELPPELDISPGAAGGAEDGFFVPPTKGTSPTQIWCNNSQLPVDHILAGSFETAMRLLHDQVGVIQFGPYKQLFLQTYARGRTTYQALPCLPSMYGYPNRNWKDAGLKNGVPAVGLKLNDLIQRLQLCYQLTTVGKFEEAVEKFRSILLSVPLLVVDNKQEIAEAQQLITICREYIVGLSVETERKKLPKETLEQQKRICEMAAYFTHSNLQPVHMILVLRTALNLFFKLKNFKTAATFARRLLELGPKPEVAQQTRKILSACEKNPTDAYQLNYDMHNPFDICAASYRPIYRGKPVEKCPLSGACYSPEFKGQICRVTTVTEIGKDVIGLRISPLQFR
UniProt Q9Y678: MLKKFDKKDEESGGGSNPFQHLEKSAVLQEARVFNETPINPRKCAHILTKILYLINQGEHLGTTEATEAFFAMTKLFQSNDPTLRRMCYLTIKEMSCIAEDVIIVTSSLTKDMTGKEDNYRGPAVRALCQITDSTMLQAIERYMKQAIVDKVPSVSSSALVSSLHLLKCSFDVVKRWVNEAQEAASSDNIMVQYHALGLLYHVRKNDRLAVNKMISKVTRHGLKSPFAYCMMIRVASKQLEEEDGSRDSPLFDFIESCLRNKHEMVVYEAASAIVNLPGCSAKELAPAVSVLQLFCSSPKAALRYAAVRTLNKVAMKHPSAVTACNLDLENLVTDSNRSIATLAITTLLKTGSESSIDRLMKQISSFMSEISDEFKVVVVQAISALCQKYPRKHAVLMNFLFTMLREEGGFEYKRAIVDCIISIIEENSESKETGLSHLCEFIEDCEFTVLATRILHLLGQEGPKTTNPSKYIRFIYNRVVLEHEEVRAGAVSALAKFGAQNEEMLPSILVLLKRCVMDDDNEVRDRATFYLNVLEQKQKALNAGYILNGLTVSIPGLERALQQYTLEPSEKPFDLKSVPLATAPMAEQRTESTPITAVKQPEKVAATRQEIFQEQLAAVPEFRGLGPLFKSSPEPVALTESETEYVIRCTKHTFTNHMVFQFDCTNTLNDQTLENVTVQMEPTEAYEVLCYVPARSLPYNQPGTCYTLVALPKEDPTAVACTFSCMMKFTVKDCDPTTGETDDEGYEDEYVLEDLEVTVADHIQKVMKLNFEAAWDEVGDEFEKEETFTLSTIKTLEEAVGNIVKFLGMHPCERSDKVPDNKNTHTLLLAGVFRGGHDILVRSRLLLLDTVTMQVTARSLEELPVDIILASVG

Target: Fam3C (human (endogenous in SUM159)) (UniProt Q92520)
Assay: co-IP; SUM159 (derivative) cell lysates immunoprecipitated with Fam3C antibody or IgG control; immunoblot with anti-CopG or anti-CopA, anti-Fam3C and anti-HSP90 antibodies

| Substance | binding |
| --- | --- |
| CopA (from UniProt P53621 1-1224) | binds |
| CopG (from UniProt Q9Y678 1-874) | binds |
